Reference: paper PMC9123247 (Drug Design, Development and Therapy, 2022)

Tested on: A549 lung cancer cell line
Test: MTT anti-proliferative assay, lung cancer cell line A549
Assay type: cell-based
Settings: Homo sapiens, A549, read-out: IC50 (µM) A549

Q: CN[C@@H]1C[C@H]2O[C@@](C)([C@@H]1OC)n1c3ccccc3c3c4c(c5c6ccccc6n2c5c31)C(=O)NC4 [Staurosporine] was tested. Which IC50 did it give?
A: 4.29 ± 0.72 µM
